From the supplement of paper PMC10849652
Some of the results follow.

Sequences of proteins named here, by UniProt entry; tags and fusion partners are left off. A change or cut given only in a name is not applied to a line headed by its entry.
UniProt Q07820, whole entry, looked up: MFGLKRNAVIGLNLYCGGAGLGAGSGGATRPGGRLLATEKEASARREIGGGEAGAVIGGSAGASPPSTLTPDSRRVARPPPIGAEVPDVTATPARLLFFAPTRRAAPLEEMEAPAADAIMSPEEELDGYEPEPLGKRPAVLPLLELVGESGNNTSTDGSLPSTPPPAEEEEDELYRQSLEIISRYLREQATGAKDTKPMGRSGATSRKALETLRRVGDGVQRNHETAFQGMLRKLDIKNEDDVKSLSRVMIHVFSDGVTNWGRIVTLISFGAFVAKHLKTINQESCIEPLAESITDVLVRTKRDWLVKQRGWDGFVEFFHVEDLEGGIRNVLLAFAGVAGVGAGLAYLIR
UniProt Q9BTE3: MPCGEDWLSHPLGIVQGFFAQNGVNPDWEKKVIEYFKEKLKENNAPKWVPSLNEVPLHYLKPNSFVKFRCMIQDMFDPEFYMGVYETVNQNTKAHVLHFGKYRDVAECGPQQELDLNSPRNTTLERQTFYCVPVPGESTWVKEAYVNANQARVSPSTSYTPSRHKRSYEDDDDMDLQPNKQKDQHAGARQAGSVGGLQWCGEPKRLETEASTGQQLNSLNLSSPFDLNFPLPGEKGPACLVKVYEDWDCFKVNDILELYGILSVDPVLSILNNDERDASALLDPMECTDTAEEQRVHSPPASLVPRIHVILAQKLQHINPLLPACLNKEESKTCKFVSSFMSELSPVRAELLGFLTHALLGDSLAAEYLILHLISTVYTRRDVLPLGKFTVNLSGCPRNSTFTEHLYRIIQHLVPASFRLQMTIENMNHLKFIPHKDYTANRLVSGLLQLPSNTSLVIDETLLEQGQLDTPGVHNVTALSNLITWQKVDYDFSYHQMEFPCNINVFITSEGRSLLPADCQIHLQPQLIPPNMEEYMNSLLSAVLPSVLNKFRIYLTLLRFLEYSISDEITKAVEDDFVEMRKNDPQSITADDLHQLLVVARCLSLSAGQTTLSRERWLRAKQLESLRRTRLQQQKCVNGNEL
UniProt Q9NR56: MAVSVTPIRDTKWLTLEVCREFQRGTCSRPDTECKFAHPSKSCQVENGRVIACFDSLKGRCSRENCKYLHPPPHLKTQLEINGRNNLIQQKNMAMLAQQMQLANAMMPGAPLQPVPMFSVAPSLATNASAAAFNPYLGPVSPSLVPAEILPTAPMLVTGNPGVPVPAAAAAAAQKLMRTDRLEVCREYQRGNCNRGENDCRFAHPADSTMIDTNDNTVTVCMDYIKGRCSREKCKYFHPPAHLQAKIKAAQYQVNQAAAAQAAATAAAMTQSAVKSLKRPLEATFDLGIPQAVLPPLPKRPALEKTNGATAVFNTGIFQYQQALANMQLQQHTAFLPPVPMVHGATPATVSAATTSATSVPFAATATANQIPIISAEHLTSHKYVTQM
UniProt Q9HCC0: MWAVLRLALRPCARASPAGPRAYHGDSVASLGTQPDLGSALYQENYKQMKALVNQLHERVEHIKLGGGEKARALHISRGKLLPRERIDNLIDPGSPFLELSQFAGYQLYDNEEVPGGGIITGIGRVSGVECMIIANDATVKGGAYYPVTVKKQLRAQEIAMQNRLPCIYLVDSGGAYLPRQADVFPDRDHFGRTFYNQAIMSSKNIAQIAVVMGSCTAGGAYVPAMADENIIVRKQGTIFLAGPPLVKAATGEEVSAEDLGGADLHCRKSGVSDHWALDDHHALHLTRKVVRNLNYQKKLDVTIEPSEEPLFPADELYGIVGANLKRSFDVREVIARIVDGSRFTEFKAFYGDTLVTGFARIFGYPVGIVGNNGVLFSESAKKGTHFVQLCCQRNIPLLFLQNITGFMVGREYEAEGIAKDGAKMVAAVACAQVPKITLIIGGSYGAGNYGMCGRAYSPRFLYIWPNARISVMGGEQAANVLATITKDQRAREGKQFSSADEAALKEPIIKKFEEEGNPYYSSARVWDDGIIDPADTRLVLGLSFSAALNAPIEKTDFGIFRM
UniProt Q8NI22: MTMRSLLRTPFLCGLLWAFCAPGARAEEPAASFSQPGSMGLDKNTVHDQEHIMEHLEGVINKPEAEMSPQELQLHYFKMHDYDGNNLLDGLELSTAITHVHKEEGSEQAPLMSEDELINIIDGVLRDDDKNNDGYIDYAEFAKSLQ
UniProt Q8NBP5: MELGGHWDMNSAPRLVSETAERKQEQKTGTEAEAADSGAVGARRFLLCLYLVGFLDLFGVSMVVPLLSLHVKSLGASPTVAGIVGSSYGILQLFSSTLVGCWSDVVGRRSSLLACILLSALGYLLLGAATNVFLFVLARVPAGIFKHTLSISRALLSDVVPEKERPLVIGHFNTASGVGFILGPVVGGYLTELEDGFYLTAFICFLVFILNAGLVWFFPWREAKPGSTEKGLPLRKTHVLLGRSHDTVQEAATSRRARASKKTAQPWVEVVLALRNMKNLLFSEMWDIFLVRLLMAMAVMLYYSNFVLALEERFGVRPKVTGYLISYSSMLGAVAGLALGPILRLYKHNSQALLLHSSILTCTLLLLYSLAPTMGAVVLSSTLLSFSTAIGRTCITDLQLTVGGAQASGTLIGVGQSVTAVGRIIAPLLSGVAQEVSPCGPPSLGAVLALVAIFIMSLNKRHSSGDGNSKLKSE
UniProt Q71SY5: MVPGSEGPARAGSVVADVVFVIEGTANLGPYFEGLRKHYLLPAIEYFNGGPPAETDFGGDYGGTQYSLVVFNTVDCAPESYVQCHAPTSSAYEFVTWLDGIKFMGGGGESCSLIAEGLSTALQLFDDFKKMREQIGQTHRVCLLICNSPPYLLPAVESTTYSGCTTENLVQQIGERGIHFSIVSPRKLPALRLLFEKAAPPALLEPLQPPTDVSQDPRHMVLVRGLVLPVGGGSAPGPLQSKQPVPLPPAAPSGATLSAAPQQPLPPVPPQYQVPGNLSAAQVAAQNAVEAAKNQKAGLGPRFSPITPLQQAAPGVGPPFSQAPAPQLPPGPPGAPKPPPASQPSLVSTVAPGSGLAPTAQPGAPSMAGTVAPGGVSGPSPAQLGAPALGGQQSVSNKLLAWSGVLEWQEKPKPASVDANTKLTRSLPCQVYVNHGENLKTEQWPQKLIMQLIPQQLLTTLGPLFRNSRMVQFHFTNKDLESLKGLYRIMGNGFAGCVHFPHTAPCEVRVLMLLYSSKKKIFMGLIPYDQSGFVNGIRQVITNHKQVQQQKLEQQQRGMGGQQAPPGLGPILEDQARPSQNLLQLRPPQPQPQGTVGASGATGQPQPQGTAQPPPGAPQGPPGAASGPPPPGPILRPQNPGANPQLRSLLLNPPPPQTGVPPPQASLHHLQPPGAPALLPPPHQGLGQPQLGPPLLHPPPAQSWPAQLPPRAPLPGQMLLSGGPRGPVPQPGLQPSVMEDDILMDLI
UniProt O95243: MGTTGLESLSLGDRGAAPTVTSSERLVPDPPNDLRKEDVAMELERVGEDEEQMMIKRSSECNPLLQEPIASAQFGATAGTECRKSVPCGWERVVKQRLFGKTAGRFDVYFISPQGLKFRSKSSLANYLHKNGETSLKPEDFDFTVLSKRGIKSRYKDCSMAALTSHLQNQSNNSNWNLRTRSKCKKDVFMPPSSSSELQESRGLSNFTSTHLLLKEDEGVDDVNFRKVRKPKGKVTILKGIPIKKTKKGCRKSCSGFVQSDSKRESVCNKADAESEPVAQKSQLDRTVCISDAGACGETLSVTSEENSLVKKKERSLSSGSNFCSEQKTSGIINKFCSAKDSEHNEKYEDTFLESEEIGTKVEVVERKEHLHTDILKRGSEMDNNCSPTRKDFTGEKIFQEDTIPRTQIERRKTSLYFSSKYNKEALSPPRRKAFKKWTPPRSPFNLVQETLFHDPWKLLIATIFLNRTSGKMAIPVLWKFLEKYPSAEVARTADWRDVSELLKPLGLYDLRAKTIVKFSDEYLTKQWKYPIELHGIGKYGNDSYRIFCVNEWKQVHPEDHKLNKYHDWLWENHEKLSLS
UniProt Q9NWR8: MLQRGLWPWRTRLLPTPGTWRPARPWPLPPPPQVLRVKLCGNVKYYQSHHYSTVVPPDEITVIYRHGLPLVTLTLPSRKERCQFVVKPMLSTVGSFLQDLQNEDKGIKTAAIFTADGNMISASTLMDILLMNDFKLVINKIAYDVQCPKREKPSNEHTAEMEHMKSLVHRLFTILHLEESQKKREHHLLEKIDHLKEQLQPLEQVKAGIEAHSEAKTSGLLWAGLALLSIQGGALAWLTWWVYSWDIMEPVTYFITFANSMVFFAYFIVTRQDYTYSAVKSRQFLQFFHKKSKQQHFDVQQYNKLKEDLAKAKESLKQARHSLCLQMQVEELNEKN
UniProt Q9H204: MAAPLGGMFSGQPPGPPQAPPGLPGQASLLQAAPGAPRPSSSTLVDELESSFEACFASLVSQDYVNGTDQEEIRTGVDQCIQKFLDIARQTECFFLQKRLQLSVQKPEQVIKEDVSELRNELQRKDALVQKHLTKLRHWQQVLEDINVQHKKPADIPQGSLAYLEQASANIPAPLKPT
UniProt Q13503: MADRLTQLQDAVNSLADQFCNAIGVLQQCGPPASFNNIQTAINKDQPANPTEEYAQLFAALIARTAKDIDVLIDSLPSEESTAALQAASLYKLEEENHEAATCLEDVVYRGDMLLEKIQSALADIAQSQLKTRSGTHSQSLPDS
UniProt Q5VZF2: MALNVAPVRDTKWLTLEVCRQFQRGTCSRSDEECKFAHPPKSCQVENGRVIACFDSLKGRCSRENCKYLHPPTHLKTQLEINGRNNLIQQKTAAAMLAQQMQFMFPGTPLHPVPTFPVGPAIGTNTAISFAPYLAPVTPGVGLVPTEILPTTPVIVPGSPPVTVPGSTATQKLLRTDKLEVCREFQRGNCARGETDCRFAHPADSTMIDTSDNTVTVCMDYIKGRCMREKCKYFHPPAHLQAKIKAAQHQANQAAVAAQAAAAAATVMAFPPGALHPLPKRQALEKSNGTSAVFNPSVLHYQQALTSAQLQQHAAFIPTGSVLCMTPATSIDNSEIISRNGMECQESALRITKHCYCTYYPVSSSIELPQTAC
UniProt P50579: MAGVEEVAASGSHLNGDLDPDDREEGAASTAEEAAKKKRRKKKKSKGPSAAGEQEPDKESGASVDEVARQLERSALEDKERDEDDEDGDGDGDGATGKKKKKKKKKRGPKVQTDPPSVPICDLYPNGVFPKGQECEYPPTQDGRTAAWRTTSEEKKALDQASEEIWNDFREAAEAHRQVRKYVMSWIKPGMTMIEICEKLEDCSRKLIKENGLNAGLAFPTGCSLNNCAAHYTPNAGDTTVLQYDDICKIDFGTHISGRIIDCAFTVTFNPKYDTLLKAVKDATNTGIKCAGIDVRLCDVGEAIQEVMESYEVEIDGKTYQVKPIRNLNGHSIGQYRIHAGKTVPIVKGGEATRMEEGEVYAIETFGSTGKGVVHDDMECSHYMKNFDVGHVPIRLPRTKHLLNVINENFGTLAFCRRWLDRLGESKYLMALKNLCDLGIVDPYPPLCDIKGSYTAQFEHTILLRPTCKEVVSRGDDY
UniProt Q86XA0: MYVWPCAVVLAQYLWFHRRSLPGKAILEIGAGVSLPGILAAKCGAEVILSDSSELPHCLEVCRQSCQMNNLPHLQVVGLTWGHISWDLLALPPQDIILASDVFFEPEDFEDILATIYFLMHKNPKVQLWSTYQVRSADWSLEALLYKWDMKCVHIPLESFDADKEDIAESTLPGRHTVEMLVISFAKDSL
UniProt Q9NWA0: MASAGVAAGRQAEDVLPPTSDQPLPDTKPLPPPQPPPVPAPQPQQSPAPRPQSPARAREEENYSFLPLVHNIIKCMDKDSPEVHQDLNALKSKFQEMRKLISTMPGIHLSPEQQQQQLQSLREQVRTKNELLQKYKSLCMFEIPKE
UniProt A6NJ78: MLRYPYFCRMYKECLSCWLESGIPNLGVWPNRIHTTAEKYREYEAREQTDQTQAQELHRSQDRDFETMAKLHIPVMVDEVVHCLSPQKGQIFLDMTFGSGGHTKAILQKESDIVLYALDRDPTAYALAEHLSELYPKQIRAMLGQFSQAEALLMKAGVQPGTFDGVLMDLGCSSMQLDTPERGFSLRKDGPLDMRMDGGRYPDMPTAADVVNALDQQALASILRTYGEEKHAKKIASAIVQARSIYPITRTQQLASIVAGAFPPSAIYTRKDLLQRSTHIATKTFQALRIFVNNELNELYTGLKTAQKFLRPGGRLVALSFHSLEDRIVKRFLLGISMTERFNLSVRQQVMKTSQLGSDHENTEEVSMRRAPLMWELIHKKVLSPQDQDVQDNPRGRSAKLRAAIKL
UniProt O00470: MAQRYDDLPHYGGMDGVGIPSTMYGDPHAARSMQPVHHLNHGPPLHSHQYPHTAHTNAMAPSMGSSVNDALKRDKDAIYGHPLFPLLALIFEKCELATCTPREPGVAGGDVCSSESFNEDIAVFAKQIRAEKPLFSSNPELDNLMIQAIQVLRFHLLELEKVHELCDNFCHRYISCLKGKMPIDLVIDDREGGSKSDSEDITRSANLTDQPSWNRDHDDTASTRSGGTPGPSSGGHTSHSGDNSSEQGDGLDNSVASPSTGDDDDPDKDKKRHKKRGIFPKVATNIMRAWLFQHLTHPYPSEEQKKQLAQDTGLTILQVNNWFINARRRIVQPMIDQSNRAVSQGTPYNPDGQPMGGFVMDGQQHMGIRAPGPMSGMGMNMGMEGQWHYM

How the values were obtained:
Assay in all cases: log2 fold change, soluble protein after heating vs DMSO (PISA); higher = thermal stabilisation; K562 lysate, 10 uM; active = over 0.2 and 3.5 SD of the protein, either way, in both replicates (recomputed)
[1] = compound: C1=CC=C(C=C1)[C@H](COC2=CC3=C(C=C2)NC(=O)N3)NC(=O)C4=CC=CN(C4=O)CC5=CC(=C(C=C5)F)F
Method in brief: (§1)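 Soluble protein was defined as the supernatant remaining after 21,000xg for 90 min, following pooling of heated aliquots and adjustment to 0.5% NP-40 at 4°C. Before that, crude K562 extract at 1 mg/mL protein in PBS pH 7.4 with 1 mM MgCl2 was treated with 10 μM compound for 30 min and heated for 3 min across 48°C-58°C. Quantification used TMTpro 16plex LC-MS/MS with channel sums equalised, and values are log-two fold changes in thermal stability relative to solvent controls from duplicates.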

[2] = compound: CC1=C(SC2=C1C(=N[C@H](C3=NN=C(N32)C)CC(=O)N)C4=CC=C(C=C4)Cl)C
Method in brief: as §1

[3] = compound: CC1=C2C(=CC=C1)N=C(N(C2=O)C3=CC=CC=C3C)CN4C=NC5=C(N=CN=C54)N
Method in brief: as §1

[4] = compound: Cc1sc2c(c1C)C(c1ccc(Cl)cc1)=N[C@@H](CC(=O)OC(C)(C)C)c1nnc(C)n1-2
Method in brief: as §1

[5] = compound: c1ccc([C@@H]2C[C@H]2NC2CCNCC2)cc1
Method in brief: as §1

Measured: log2 fold change

MAX (UniProt P61244)
inactive: [1] 0.108 | [2] -0.067 | [3] -0.011 | [4] -0.014 | [5] -0.018

MED6 (UniProt O75586)
inactive: [1] 0.03 | [2] -0.16 | [3] 0.05 | [4] -0.268 | [5] 0.009

MEF2C isoform 5 (UniProt Q06413)
inactive: [1] 0.016 | [2] -0.041 | [3] -0.005 | [4] -0.124 | [5] -0.017

MFN2 (UniProt O95140)
inactive: [1] -0.001 | [2] -0.002 | [3] 0.046 | [4] 0.016 | [5] 0.101

MCOLN1 (UniProt Q9GZU1)
inactive: [1] 0.085 | [2] 0.01 | [3] 0.006 | [4] -0.142 | [5] -0.003

MCAT (UniProt Q8IVS2)
inactive: [1] -0.02 | [2] 0.062 | [3] -0.008 | [4] 0.029 | [5] -0.008

MAZ isoform 2 (UniProt P56270)
inactive: [1] 0.079 | [2] -0.002 | [3] -0.179 | [4] 0.137 | [5] -0.096

MCL1 (UniProt Q07820)
inactive: [1] 0.003 | [2] 0.021 | [3] -0.029 | [4] 0.106 | [5] -0.08

MFGE8 (UniProt Q08431)
inactive: [1] 0.012 | [2] 0.024 | [3] 0.006 | [4] 0.1 | [5] -0.071

MCCC1 (UniProt Q96RQ3)
inactive: [1] -0.063 | [2] 0.015 | [3] 0.046 | [4] 0.002 | [5] 0.059

MEX3D isoform 3 (UniProt Q86XN8)
inactive: [1] -0.049 | [2] -0.012 | [3] 0.034 | [4] 0.022 | [5] -0.01

ME1 (UniProt P48163)
inactive: [1] 0.009 | [2] 0.032 | [3] -0.009 | [4] -0.007 | [5] -0.002

MCMBP (UniProt Q9BTE3)
inactive: [1] -0.016 | [2] 0.035 | [3] 0.019 | [4] -0.013 | [5] 0.057

MBNL1 isoform 5 (UniProt Q9NR56)
inactive: [1] -0.045 | [2] 0.003 | [3] -0.048 | [4] 0.032 | [5] -0.099

MCCC2 (UniProt Q9HCC0)
inactive: [1] 0.05 | [2] -0.005 | [3] -0.011 | [4] -0.002 | [5] 0.002

MFF isoform 2 (UniProt Q9GZY8)
inactive: [1] 0.044 | [2] -0.029 | [3] -0.009 | [4] -0.049 | [5] -0.125

MCM7 (UniProt P33993)
inactive: [1] 0.014 | [2] -0.001 | [3] -0.036 | [4] 0.012 | [5] 0.035

MCFD2 (UniProt Q8NI22)
inactive: [1] -0.079 | [2] -0.189 | [3] 0 | [4] 0.008 | [5] 0.051

MDM1 (UniProt Q8TC05)
inactive: [3] 0.018 | [4] -0.116
active: [5] -0.866

MFSD9 (UniProt Q8NBP5)
inactive: [4] -0.099

MED29 (UniProt Q9NX70)
inactive: [4] -0.315 | [5] 0.043

METTL2B (UniProt Q6P1Q9)
inactive: [1] -0.065 | [2] 0.044 | [4] -0.135 | [5] 0.104

MDM4 (UniProt O15151)
inactive: [3] -0.097 | [4] -0.186 | [5] 0.028

MFSD12 isoform 3 (UniProt Q6NUT3)
inactive: [3] 0.013 | [4] -0.021 | [5] -0.042

MEX3B (UniProt Q6ZN04)
inactive: [1] 0.015 | [2] 0.121 | [4] -0.198 | [5] 0.109

MED25 isoform 3 (UniProt Q71SY5)
inactive: [1] -0.069 | [2] 0.026 | [4] 0.01 | [5] 0.052

18 successive entries already listed:
MFGE8 (UniProt Q08431)
inactive: [1] 0.012 | [2] 0.024 | [3] 0.006 | [4] 0.1 | [5] -0.071

MCCC1 (UniProt Q96RQ3)
inactive: [1] -0.063 | [2] 0.015 | [3] 0.046 | [4] 0.002 | [5] 0.059

MEX3D isoform 3 (UniProt Q86XN8)
inactive: [1] -0.049 | [2] -0.012 | [3] 0.034 | [4] 0.022 | [5] -0.01

ME1 (UniProt P48163)
inactive: [1] 0.009 | [2] 0.032 | [3] -0.009 | [4] -0.007 | [5] -0.002

MCMBP (UniProt Q9BTE3)
inactive: [1] -0.016 | [2] 0.035 | [3] 0.019 | [4] -0.013 | [5] 0.057

MBNL1 isoform 5 (UniProt Q9NR56)
inactive: [1] -0.045 | [2] 0.003 | [3] -0.048 | [4] 0.032 | [5] -0.099

MCCC2 (UniProt Q9HCC0)
inactive: [1] 0.05 | [2] -0.005 | [3] -0.011 | [4] -0.002 | [5] 0.002

MFF isoform 2 (UniProt Q9GZY8)
inactive: [1] 0.044 | [2] -0.029 | [3] -0.009 | [4] -0.049 | [5] -0.125

MCM7 (UniProt P33993)
inactive: [1] 0.014 | [2] -0.001 | [3] -0.036 | [4] 0.012 | [5] 0.035

MCFD2 (UniProt Q8NI22)
inactive: [1] -0.079 | [2] -0.189 | [3] 0 | [4] 0.008 | [5] 0.051

MDM1 (UniProt Q8TC05)
inactive: [3] 0.018 | [4] -0.116
active: [5] -0.866

MFSD9 (UniProt Q8NBP5)
inactive: [4] -0.099

MED29 (UniProt Q9NX70)
inactive: [4] -0.315 | [5] 0.043

METTL2B (UniProt Q6P1Q9)
inactive: [1] -0.065 | [2] 0.044 | [4] -0.135 | [5] 0.104

MDM4 (UniProt O15151)
inactive: [3] -0.097 | [4] -0.186 | [5] 0.028

MFSD12 isoform 3 (UniProt Q6NUT3)
inactive: [3] 0.013 | [4] -0.021 | [5] -0.042

MEX3B (UniProt Q6ZN04)
inactive: [1] 0.015 | [2] 0.121 | [4] -0.198 | [5] 0.109

MED25 isoform 3 (UniProt Q71SY5)
inactive: [1] -0.069 | [2] 0.026 | [4] 0.01 | [5] 0.052

Next results.

MBD4 (UniProt O95243)
inactive: [4] 0.043 | [5] -0.068

MCUB (UniProt Q9NWR8)
inactive: [1] 0.097 | [2] -0.171 | [4] 0.044 | [5] 0.205

MDK (UniProt P21741)
inactive: [4] -0.103 | [5] 0.245

MFSD11 (UniProt O43934)
inactive: [1] 0.114 | [2] 0.003 | [5] -0.088

METTL21A (UniProt Q8WXB1)
inactive: [1] 0.048 | [2] -0.069 | [4] -0.068 | [5] 0

MBD6 (UniProt Q96DN6)
inactive: [4] -0.174

MEF2C isoform 2 (UniProt Q06413)
inactive: [3] 0.052 | [4] -0.066 | [5] -0.075

MED28 (UniProt Q9H204)
inactive: [4] -0.032 | [5] 0.018

MEIOB isoform 2 (UniProt Q8N635)
inactive: [4] 0.118 | [5] 0.03

MED21 (UniProt Q13503)
inactive: [1] -0.001 | [2] -0.021 | [4] 0.024 | [5] 0.164

MBNL2 (UniProt Q5VZF2)
inactive: [3] -0.005 | [5] 0.055

MBLAC1 (UniProt A4D2B0)
inactive: [3] 0.17 | [5] -0.066

METAP2 isoform 2 (UniProt P50579)
inactive: [5] -0.057

MEGF8 (UniProt Q7Z7M0)
inactive: [1] 0.023 | [2] -0.022 | [4] 0.116 | [5] 0.1

MFSD6 (UniProt Q6ZSS7)
inactive: [1] 0.057 | [2] -0.082 | [4] 0.032 | [5] 0.043

METTL23 (UniProt Q86XA0)
inactive: [3] -0.086

MFSD4B (UniProt Q5TF39)
inactive: [1] 0.056 | [2] -0.428 | [4] 0.043 | [5] -0.041

MED9 (UniProt Q9NWA0)
inactive: [4] -0.098 | [5] 0.106

MATK isoform 2 (UniProt P42679)
inactive: [5] 0.076

MFAP3 (UniProt P55082)
inactive: [3] -0.04 | [4] 0.04 | [5] -0.171

MCPH1 (UniProt Q8NEM0)
inactive: [5] -0.002

MFSD14B (UniProt Q5SR56)
inactive: [5] -0.011

METTL9 (UniProt Q9H1A3)
inactive: [1] 0.058 | [2] 0.014 | [4] 0.088 | [5] -0.12

METTL15 (UniProt A6NJ78)
inactive: [3] -0.128

METTL17 isoform 3 (UniProt Q9H7H0)
inactive: [5] -0.015

MEIS1 (UniProt O00470)
inactive: [1] -0.079 | [2] 0.005 | [5] -0.316

MCTS2P, A0A3B3IRV3
inactive: [4] -0.2

MELK (UniProt Q14680)
inactive: [3] 0.13 | [4] -0.089 | [5] -0.046

MEX3A (UniProt A1L020)
inactive: [3] 0.15 | [4] -0.073

MCEMP1 (UniProt Q8IX19)
inactive: [4] 0.078

MEN1 (UniProt O00255)
inactive: [3] 0.039 | [4] -0.118
